{"source": "paper PMC7819943", "about": "“Rice protein-binding microarrays: a tool to detect cis-acting elements near promoter regions in rice”", "note": "The list shows a part of the results."}
{"biological_target": "T1, OsSMF1 (Oryza sativa, UniProt Q6ZLB0 1-436)", "T1 sequence": "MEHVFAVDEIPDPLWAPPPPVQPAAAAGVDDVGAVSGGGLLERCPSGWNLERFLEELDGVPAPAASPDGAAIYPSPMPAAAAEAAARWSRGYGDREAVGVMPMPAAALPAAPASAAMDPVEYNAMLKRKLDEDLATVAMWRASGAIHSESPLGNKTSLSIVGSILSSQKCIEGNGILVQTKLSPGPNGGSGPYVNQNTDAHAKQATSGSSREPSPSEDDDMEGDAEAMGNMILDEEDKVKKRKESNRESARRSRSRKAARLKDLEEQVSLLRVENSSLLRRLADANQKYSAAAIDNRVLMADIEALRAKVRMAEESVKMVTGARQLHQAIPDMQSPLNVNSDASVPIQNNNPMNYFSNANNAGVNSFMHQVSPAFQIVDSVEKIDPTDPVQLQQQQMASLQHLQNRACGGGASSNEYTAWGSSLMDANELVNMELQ", "test": "protein-binding microarray (RPBM); PBS, 2% BSA, 51.3 ng/ul salmon testes DNA, 50 uM zinc acetate, 200 nM TF, 25 C, 1 h; high values mean tight binding", "details": "protein: recombinant; tags: N-terminal polyhistidine and DsRed monomer fusion (pET32a); chain copies: 2; label: CyDye5-dUTP incorporated in the synthesized complementary strand; 3' TTTTT single-stranded linker to array surface; dsDNA, one strand shown", "how_it_was_run": "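Transcription factors, each fused N-terminally to a polyhistidine tag and DsRed, were expressed in E. coli BL21-CodonPlus and purified on Ni–NTA. A custom Agilent array was made double-stranded by primer extension with Cy5-dUTP and blocked with 2% BSA. It was incubated with 200 nM protein in PBS, 2% BSA, salmon testes DNA and 50 µM zinc acetate at 25 °C for 1 h, then washed. The binding signal is per-feature fluorescence intensity (arbitrary units) read on an Axon 4000B scanner.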"}
{"sequence": "GCTCCTCCCCACAGCTGTCGTCGCGTCAACCCATTATCCTCGGAGTCACCTAGTGCAG", "binding signal": "3570 fluorescence intensity (a.u.)"}
{"sequence": "GCGGCGTTGCGGATGGGGACGGGGACGGGGACGGCGGCGACGGAGTCACCTAGTGCAG", "binding signal": "3170 fluorescence intensity (a.u.)"}
{"sequence": "CCTTTCCAATGCCGATATTACCAAATTTGGTTGTTAACACCGGAGTCACCTAGTGCAG", "binding signal": "3230 fluorescence intensity (a.u.)"}
{"sequence": "ATCTCAATCGGGCTTAAATTACGGCCCGTCACTGATAGGTCGGAGTCACCTAGTGCAG", "binding signal": "5540 fluorescence intensity (a.u.)"}
{"sequence": "ACAGTTGCTGACTAGGTTGACCTTGACTCAACCACCCTACCGGAGTCACCTAGTGCAG", "binding signal": "8980 fluorescence intensity (a.u.)"}
{"sequence": "GTCTACGAATATTATGTACACGTAAATGAACTGTCAATCGCGGAGTCACCTAGTGCAG", "binding signal": "5540 fluorescence intensity (a.u.)"}
{"sequence": "CATTCAACCACACACATCACACATCCGTTGGCTTCTTCCACGGAGTCACCTAGTGCAG", "binding signal": "4860 fluorescence intensity (a.u.)"}
{"sequence": "ATCTCTCATCCTGTCACAAACTATTTAGAGTGCAAACTCGCGGAGTCACCTAGTGCAG", "binding signal": "17700 fluorescence intensity (a.u.)"}
{"sequence": "TTTTCCACAAAACGTACGCCTACGTGTCCTCCTATCCCCTCGGAGTCACCTAGTGCAG", "binding signal": "18200 fluorescence intensity (a.u.)"}
{"sequence": "TGGCGGTTTGGAAGGCGGTTTTGGCTGACGTGGCGTCTACCGGAGTCACCTAGTGCAG", "binding signal": "43800 fluorescence intensity (a.u.)"}
{"sequence": "AAAATAATTAAAATAGTACGAGTAGATTCACACAAGATCTCGGAGTCACCTAGTGCAG", "binding signal": "39900 fluorescence intensity (a.u.)"}
{"sequence": "TCGAACAAACCCTAACAACAACAGACAAGAGAGAGGCATTCGGAGTCACCTAGTGCAG", "binding signal": "3920 fluorescence intensity (a.u.)"}
{"sequence": "ATGCTTGCTGTTACCCCTGAATTGAATTCTGAAACCGAATCGGAGTCACCTAGTGCAG", "binding signal": "26700 fluorescence intensity (a.u.)"}
{"sequence": "CGGCCGCGTCAGGGAGGACGCCGCGCGGCACTACTTCCGGCGGAGTCACCTAGTGCAG", "binding signal": "3870 fluorescence intensity (a.u.)"}
{"sequence": "CCCTTCCTCCGCCTATTGCTGCCACGCCCCTCCTTCCTCCCGGAGTCACCTAGTGCAG", "binding signal": "5240 fluorescence intensity (a.u.)"}
{"sequence": "AGACGCTCGCGTTGCGTGGTAGACGGACTTCACGATGAATCGGAGTCACCTAGTGCAG", "binding signal": "3680 fluorescence intensity (a.u.)"}
{"sequence": "GTGCTGTTTGTGATGTTTGTCTGTATGTGCTCCGTCTGTTCGGAGTCACCTAGTGCAG", "binding signal": "3340 fluorescence intensity (a.u.)"}
{"sequence": "ATCAATCCTGCACTACAAGCAGAGTAAAATGGTGATTTCTCGGAGTCACCTAGTGCAG", "binding signal": "4710 fluorescence intensity (a.u.)"}
{"sequence": "TGAACTAACGCCATCAGATGAGTCATCCGTCAACCAGTATCGGAGTCACCTAGTGCAG", "binding signal": "11900 fluorescence intensity (a.u.)"}
{"sequence": "GCTCCAACTCGCAAACTGTGGCACTGGGCTCCATGCCAGACGGAGTCACCTAGTGCAG", "binding signal": "3560 fluorescence intensity (a.u.)"}
{"sequence": "ACGCCGGAGTCCACGGCGTGGCACCGGACCACGCCCACGACGGAGTCACCTAGTGCAG", "binding signal": "3590 fluorescence intensity (a.u.)"}
{"sequence": "TGAGGGACCTTGCGTGTACTTTTCCCTTTAATTAGTGGATCGGAGTCACCTAGTGCAG", "binding signal": "5190 fluorescence intensity (a.u.)"}
{"sequence": "ATTAACATGCATCCGCCTCACCGAAGGCATTCCACGCTTCCGGAGTCACCTAGTGCAG", "binding signal": "3380 fluorescence intensity (a.u.)"}
{"sequence": "GCAGCGCCCGAATGAAGGGCCACGTCAGCTCCTTTGTCCGCGGAGTCACCTAGTGCAG", "binding signal": "20900 fluorescence intensity (a.u.)"}
{"sequence": "TTATCCAGTTCTCGTCACTGGCACGTGGGCCCCACCGTGGCGGAGTCACCTAGTGCAG", "binding signal": "8190 fluorescence intensity (a.u.)"}
{"sequence": "GCACCTGCGGCATGGCGTCACCTAACCCACTCTCTGTCAGCGGAGTCACCTAGTGCAG", "binding signal": "4140 fluorescence intensity (a.u.)"}
{"sequence": "ATCACTTGGTGTTGTGCATTCCCGTTCTTTCTGTATGATGCGGAGTCACCTAGTGCAG", "binding signal": "3670 fluorescence intensity (a.u.)"}
{"sequence": "TATTCACATTGGTGTGTGTGTGTGTGTTGCACATTCACATCGGAGTCACCTAGTGCAG", "binding signal": "3970 fluorescence intensity (a.u.)"}
{"sequence": "TCAAGTGTCAACGTCTGATTTGGCCTCCGTAGATTGCAGACGGAGTCACCTAGTGCAG", "binding signal": "3370 fluorescence intensity (a.u.)"}
{"sequence": "TTAGCCCTTCCTCTCCTGCTTCCGCCCTTCCATGGCAATGCGGAGTCACCTAGTGCAG", "binding signal": "46700 fluorescence intensity (a.u.)"}
{"sequence": "TGGGCGTACGGCTGTCACGTGTTTCCGGCGGACGAGTCTTCGGAGTCACCTAGTGCAG", "binding signal": "3440 fluorescence intensity (a.u.)"}
{"sequence": "CTCATCTCCACAAGGACACCCCAGCCCACCACTCATCGGCCGGAGTCACCTAGTGCAG", "binding signal": "3350 fluorescence intensity (a.u.)"}
{"sequence": "TCTGTGGTGGATTTGGTCAGGTGGAGAATGAGTTTGGGCCCGGAGTCACCTAGTGCAG", "binding signal": "5650 fluorescence intensity (a.u.)"}
{"sequence": "TAGGCAAATTACATGGCATGTGCCACGTCGTTGTTGCACCCGGAGTCACCTAGTGCAG", "binding signal": "16500 fluorescence intensity (a.u.)"}
{"sequence": "TCGCCCGCGCCCACTGACACGTGGGGCCCGGCACGTGGGCCGGAGTCACCTAGTGCAG", "binding signal": "11500 fluorescence intensity (a.u.)"}
{"sequence": "TGGGCAAGCAGGTGAAGTGAGGGACCATGGTGAGAGGGTGCGGAGTCACCTAGTGCAG", "binding signal": "31700 fluorescence intensity (a.u.)"}
{"sequence": "AGGTATGTGTCAACTTGCTCATATAATAGAGGGACACGTTCGGAGTCACCTAGTGCAG", "binding signal": "3230 fluorescence intensity (a.u.)"}
{"sequence": "GCGGCGCTCGACGTCGACGGCGGAGAGCTCCTCGATCGCCCGGAGTCACCTAGTGCAG", "binding signal": "3150 fluorescence intensity (a.u.)"}
{"sequence": "CCTAGAACTTCAAGCCAAGCACATCATCAGTTGCACACTCCGGAGTCACCTAGTGCAG", "binding signal": "3990 fluorescence intensity (a.u.)"}
{"sequence": "CTGCACCACCACCACCGCCACCGCGGCCTCTCCTCCTCCCCGGAGTCACCTAGTGCAG", "binding signal": "3970 fluorescence intensity (a.u.)"}
{"sequence": "GGATGTGTATGTATTTATAGGGGTAAGTGAGAAGACTCATCGGAGTCACCTAGTGCAG", "binding signal": "5230 fluorescence intensity (a.u.)"}
{"sequence": "AAAGCAATGCAGCTATAGCTAAAGGACTTAAAGTAGCCAACGGAGTCACCTAGTGCAG", "binding signal": "3350 fluorescence intensity (a.u.)"}
